Results taken from patent US5656601 (dated 1997).

Experiment: general procedure: solution-phase peptide synthesis; acetyl-ONB / Pal-ONB (acylating agents)
Details: HOAc, TFA or HCl salts
[1] = late stage modification step, of the theoretical

With “(N^α -acetyl-arginyl)(N^ε -acetyl-lysyl)glutamylvalyltyrosine” the step yield (late stage modification step, of the theoretical, run 1) was 92%, the step yield (late stage modification step, of the theoretical, run 2) was 90% and the “crude HPLC purity” value (late stage modification step, reverse phase HPLC) was 75%. The step yield (purification step) was 54.3% and the “final HPLC purity” value (purification step, reverse phase HPLC) was 98.5%.
Work on “(N^α -acetyl-arginyl)lysylglutamylvalyltyrosine” yielded a step yield [1] of 95.6%.
In the case of “(N^α -Palmitoyl-arginyl)lysylglutamylvalyltyrosine”, the step yield [1] was 92.7%.
